{
  "source": "patent US11612627B2",
  "about": "“Method for preventing or treating thrombosis” (ANDONG NATIONAL UNIVERSITY INDUSTRY-ACADEMIC COOPERATION …, priority 2020, dated 2023)",
  "key": {"coagulation factors": {"system": "coagulation factors", "test": "aPTT (activated partial thromboplastin time)", "assay_type": "biochemical", "conditions": "0.5 mg/ml; clot time sample/clot time DMSO; 3-carene section Table 3", "protocol": "Subsequently, 50 μl of CaCl2 (35 mM) was added. […] Instead of samples, DMSO served as a solvent control. […] The aPPT was expressed as a mean value of the measurements of three independent experiments.\nInstead of samples, DMSO served as a solvent control. […] The aPPT was expressed as a mean value of the measurements of three independent experiments."}, "prothrombin": {"system": "prothrombin", "test": "Prothrombin time (plasma clotting)", "assay_type": "biochemical", "conditions": "0.5 mg/ml; clot time sample/clot time DMSO; 3-carene section Table 3", "protocol": "In an Amelung coagulometer KC-1A tube (Japan), 70 μl of standard plasma (MD Pacific Co., China) was heated, together with 10 μl of each of samples having various concentrations, at 37° C. for 3 min before adding 130 μl of PT reagent thereto. […] This experiment was repeated three times independently. The prothrombin time was expressed as a mean value of the three measurements."}},
  "note": "At least one compound was matched to its structure with a doubt left.",
  "data": [
    {"smiles": "O=c1cc(-c2ccc(O)cc2)oc2c([C@@H]3O[C@H](CO)[C@@H](O)[C@H](O)[C@H]3O)c(O)cc(O)c12", "note": "[Vitexin]", "values": [
      {"measurement": "Blood coagulation inhibition activity: aPTT", "setting": "coagulation factors", "value": "1.00 ± 0.10"},
      {"measurement": "Blood coagulation inhibition activity: Prothrombin Time", "setting": "prothrombin", "value": "0.98 ± 0.02"}
    ]}
  ]
}
